# In the supplement of paper PMC9135407:
# Values joined by “and” are separate entries in the source; they are usually repeats but may differ in a detail not shown here. Identical values can stand only once. Counter-ions that a name gives are not always drawn. ± gives the standard deviation of the averaged measurements. The list shows a part of the results. Baselines shift from plate to plate; read single values as rough.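 Assay uses culture-activated primary human stellate myofibroblasts; lipid droplet recovery indicates inactivation. Measured: proportion of Hoechst-counted cells over a plate-specific Bodipy cutoff, duplicate wells, DMSO and nortriptyline as per-plate negative and positive controls. A hit scores, control-normalized, above the plate's top-tenth-percentile nortriptyline wells or ranks among its three best wells. Final well concentrations not reported.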
# Test system: primary human hepatic stellate cells (donor 1)
# Assay: percent Bodipy-positive cells; higher = more lipid droplet accumulation
# Conditions: 48 h
# [1] = library stock concentration: 10 mM
# [2] = library stock concentration: 3.33 mM
# [3] = library stock concentration: 80 uM
# [4] = library stock concentration: 400 uM
# [5] = library stock concentration: 2 mM
# [6] = library stock concentration: 1 mM
smiles,measurement,setting,value
CCOC(=O)OC(C)OC1=C(C(=O)Nc2ccccn2)N(C)S(=O)(=O)c2ccccc21 (stereo unspecified),percent Bodipy-positive cells,[1],15.4 ± 8.5%
O=C(Nc1c(Cl)cncc1Cl)c1ccc(OC(F)F)c(OCC2CC2)c1 [Roflumilast],percent Bodipy-positive cells,[2],8.1 ± 3.9%
same,percent Bodipy-positive cells,[1],7.99 ± 1.7%
Cc1cccc(-c2[nH]c(CNc3ccccc3F)nc2-c2ccc3ncnn3c2)n1,percent Bodipy-positive cells,[3],11.9 ± 0.39%
same,percent Bodipy-positive cells,[4],11.6 ± 5.4%
same,percent Bodipy-positive cells,[5],9.65 ± 1.6%
same,percent Bodipy-positive cells,[1],10.3 ± 1.3%
CC(=O)[C@H]1CC[C@H]2[C@@H]3C[C@H](C)C4=CC(=O)CC[C@]4(C)[C@H]3[C@@H](O)C[C@]12C [Medrysone],percent Bodipy-positive cells,,10.4 ± 0.26%
same,percent Bodipy-positive cells,library stock concentration: 5.8 mM,5.5 ± 1.7%
same,percent Bodipy-positive cells,[1],6.84 ± 0.69%
CC(=O)[C@H]1CC[C@H]2[C@@H]3C[C@H](C)C4=CC(=O)CC[C@]4(C)[C@H]3[C@@H](O)C[C@]12C,percent Bodipy-positive cells,[1],36.2 ± 14%
O=C(Nc1cccc(Nc2ncc(Br)c(NCCc3c[nH]cn3)n2)c1)N1CCCC1,percent Bodipy-positive cells,[1],90.2 ± 1.9%
CCCCC/C=C\C/C=C\C/C=C\C/C=C\CCCC(=O)S[C@H](COCCCCCCCCCCCCCCCC)COP(=O)([O-])OCC[N+](C)(C)C [Arachidonoyl thio-PC],percent Bodipy-positive cells,[6],8.42 ± 2.3%
"CCCS(=O)(=O)Nc1ccc(F)c(C(=O)c2c[nH]c3ncc(-c4ccc(Cl)cc4)cc23)c1F [Vemurafenib (PLX4032, RG7204)]",percent Bodipy-positive cells,[2],9.24 ± 4.4%
same,percent Bodipy-positive cells,[1],22.6 ± 8.2%
"O=C(O)CCC/C=C\C[C@H]1C(=O)C=C[C@@H]1CC[C@@H](O)CCc1ccccc1 [17-phenyl trinor-13,14-dihydro Prostaglandin A2]",percent Bodipy-positive cells,[6],18.2 ± 0.67%
CCCCNC(=O)NS(=O)(=O)c1ccc(C)cc1,percent Bodipy-positive cells,[1],30.1 ± 8.6%
CCCCNC(=O)NS(=O)(=O)c1ccc(C)cc1 [Tolbutamide],percent Bodipy-positive cells,,28 ± 3.9%
same,percent Bodipy-positive cells,[2],10.3 ± 2%
same,percent Bodipy-positive cells,[1],15.9% and 23.5%
same,percent Bodipy-positive cells,library stock concentration: 18.5 mM,22.5 ± 2.2%
C[C@@H]1O[C@@H](O[C@H]2[C@H](Oc3cc(O)c(C(=O)CCc4ccc(O)cc4)c(O)c3)O[C@H](CO)[C@@H](O)[C@@H]2O)[C@H](O)[C@H](O)[C@H]1O [Naringin Dihydrochalcone],percent Bodipy-positive cells,[2],6.6 ± 2.8%
same,percent Bodipy-positive cells,[1],35.3 ± 8.9%
"c1ccc2c(-c3ccncc3)c[nH]c2c1 [Rho Kinase Inhibitor III, Rockout]",percent Bodipy-positive cells,[2],8.41 ± 4.9%
CC/C=C\C/C=C\C/C=C\C/C=C\C/C=C\C/C=C\CCC(=O)NCCO [Docosahexaenoyl Ethanolamide],percent Bodipy-positive cells,[6],6.98 ± 0.4%
O=C(O)c1cc(-c2ccc(F)cc2F)ccc1O [Diflunisal],percent Bodipy-positive cells,,24.4 ± 10%
same,percent Bodipy-positive cells,library stock concentration: 8 mM,7.89% and 1.95%
same,percent Bodipy-positive cells,[1],12.5 ± 5.1%
CCCCC(CC)CNC(=N)NC(=N)NCCCCCCNC(=N)NC(=N)NCC(CC)CCCC (stereo unspecified) [Alexidine dihydrochloride],percent Bodipy-positive cells,,98.3 ± 2.5%
CC/C=C\C/C=C\C/C=C\C/C=C\C/C=C\CCCCCC(=O)O [Docosapentaenoic acid],percent Bodipy-positive cells,[6],13.6 ± 6.8%
CC/C=C\C/C=C\C/C=C\C/C=C\C/C=C\CCCCCC(=O)O [Docosapentaenoic Acid],percent Bodipy-positive cells,[6],11.4 ± 4.3%
C=C(C)[C@@H]1CC=C(C(=O)O)CC1 [(-)-Perillic acid],percent Bodipy-positive cells,[1],15.8 ± 3%
C=C(C)[C@@H]1CC=C(C(=O)O)CC1 [Perillic acid (-)],percent Bodipy-positive cells,[1],22.6 ± 4%
O=C1CCc2ccc(OCCCCN3CCN(c4cccc(Cl)c4Cl)CC3)cc2N1,percent Bodipy-positive cells,[1],85.3 ± 7.8%
COC(=O)[C@@H]1[C@H]2C[C@H]3c4[nH]c5ccccc5c4CCN3C[C@@H]2CC[C@@H]1O [Yohimbine hydrochloride],percent Bodipy-positive cells,,37.4 ± 20%
same,percent Bodipy-positive cells,library stock concentration: 5.1 mM,19.6 ± 2.9%
same,percent Bodipy-positive cells,[1],30.6% and 34.9% and 34.5%
COC(=O)[C@@H]1[C@H]2C[C@H]3c4[nH]c5ccccc5c4CCN3C[C@@H]2CC[C@@H]1O [Yohimbine HCl],percent Bodipy-positive cells,[2],9.13 ± 4.9%
same,percent Bodipy-positive cells,[1],28.4 ± 1.5%
C[C@]12C=CC(=O)C=C1CC[C@@H]1[C@@H]2[C@@H](O)C[C@@]2(C)[C@H]1CC[C@]2(O)C(=O)COC(=O)CCC(=O)O,percent Bodipy-positive cells,[1],12.6 ± 2.8%
CN(C)CCSSCCNC(=O)C1CCN(C(=O)CSc2ccc(Cl)cc2)CC1,percent Bodipy-positive cells,[2],42.4 ± 17%
same,percent Bodipy-positive cells,[1],32.6 ± 5.5%
Oc1c2ccccc2c2c3c(cccc13)N=N2,percent Bodipy-positive cells,[1],7.76 ± 3.3%
same,percent Bodipy-positive cells,library stock concentration: 22.7 mM,18.9 ± 3.7%
CC(C)C[C@H](NC(=O)[C@H]1O[C@@H]1C(=O)O)C(=O)NCCCCN=C(N)N,percent Bodipy-positive cells,[2],16.2 ± 1.7%
same,percent Bodipy-positive cells,[1],38.8% and 57%
CC1(C)NC(=O)N(c2ccc([N+](=O)[O-])c(C(F)(F)F)c2)C1=O [Nilutamide],percent Bodipy-positive cells,,9 ± 2.3%
same,percent Bodipy-positive cells,library stock concentration: 6.3 mM,11.4 ± 1.6%
N[C@@H](CC(=O)Nc1ccc(Oc2cc(F)c(F)cc2Br)cc1)C(=O)O,percent Bodipy-positive cells,[1],9.3 ± 1.2%
CN(C)Cc1ccc(-c2nc3cccc4c3n2CCNC4=O)cc1,percent Bodipy-positive cells,[2],18.9 ± 1.8%
same,percent Bodipy-positive cells,[1],67.5 ± 0.51%
O=C(/C=C\n1cnc(-c2cc(C(F)(F)F)cc(C(F)(F)F)c2)n1)NNc1cnccn1,percent Bodipy-positive cells,[2],36.8 ± 8.8%
same,percent Bodipy-positive cells,[1],70 ± 6.9%
CCCCCCc1ccc(O)cc1O [Hexylresorcinol],percent Bodipy-positive cells,[1],22.1 ± 2.2%
Cc1[nH]c(/C=C2\C(=O)Nc3ccc(S(=O)(=O)N(C)c4cccc(Cl)c4)cc32)c(C)c1C(=O)N1CCN(C)CC1,percent Bodipy-positive cells,[3],24.9 ± 0.8%
same,percent Bodipy-positive cells,[4],34.3 ± 1.9%
Cc1nc(NC(=O)N2CCC[C@H]2C(N)=O)sc1-c1ccnc(C(C)(C)C(F)(F)F)c1,percent Bodipy-positive cells,[3],4.09 ± 0.38%
same,percent Bodipy-positive cells,[4],7.07 ± 2.4%
same,percent Bodipy-positive cells,[5],6.32 ± 0.45%
same,percent Bodipy-positive cells,[2],6.36 ± 3.6%
same,percent Bodipy-positive cells,[1],17.1% and 11.4%
